From article PMC1712231
Results are given in words; binding and its absence hold for the method and conditions named. Binding seen in cells or lysates may run through a third protein. Some binding calls cover weakened binding; strength is not graded here. Values belong to the molecule of their own block, whether it stands above or below them.

The chains behind the UniProt entries cited, without tags or fusion partners.
UniProt O95832: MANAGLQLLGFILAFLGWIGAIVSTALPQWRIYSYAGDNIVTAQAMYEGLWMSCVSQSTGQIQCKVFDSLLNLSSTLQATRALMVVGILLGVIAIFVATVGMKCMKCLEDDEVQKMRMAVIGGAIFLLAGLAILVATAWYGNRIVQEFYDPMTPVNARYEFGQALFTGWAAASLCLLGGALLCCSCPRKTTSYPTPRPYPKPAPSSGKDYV
UniProt Q07157: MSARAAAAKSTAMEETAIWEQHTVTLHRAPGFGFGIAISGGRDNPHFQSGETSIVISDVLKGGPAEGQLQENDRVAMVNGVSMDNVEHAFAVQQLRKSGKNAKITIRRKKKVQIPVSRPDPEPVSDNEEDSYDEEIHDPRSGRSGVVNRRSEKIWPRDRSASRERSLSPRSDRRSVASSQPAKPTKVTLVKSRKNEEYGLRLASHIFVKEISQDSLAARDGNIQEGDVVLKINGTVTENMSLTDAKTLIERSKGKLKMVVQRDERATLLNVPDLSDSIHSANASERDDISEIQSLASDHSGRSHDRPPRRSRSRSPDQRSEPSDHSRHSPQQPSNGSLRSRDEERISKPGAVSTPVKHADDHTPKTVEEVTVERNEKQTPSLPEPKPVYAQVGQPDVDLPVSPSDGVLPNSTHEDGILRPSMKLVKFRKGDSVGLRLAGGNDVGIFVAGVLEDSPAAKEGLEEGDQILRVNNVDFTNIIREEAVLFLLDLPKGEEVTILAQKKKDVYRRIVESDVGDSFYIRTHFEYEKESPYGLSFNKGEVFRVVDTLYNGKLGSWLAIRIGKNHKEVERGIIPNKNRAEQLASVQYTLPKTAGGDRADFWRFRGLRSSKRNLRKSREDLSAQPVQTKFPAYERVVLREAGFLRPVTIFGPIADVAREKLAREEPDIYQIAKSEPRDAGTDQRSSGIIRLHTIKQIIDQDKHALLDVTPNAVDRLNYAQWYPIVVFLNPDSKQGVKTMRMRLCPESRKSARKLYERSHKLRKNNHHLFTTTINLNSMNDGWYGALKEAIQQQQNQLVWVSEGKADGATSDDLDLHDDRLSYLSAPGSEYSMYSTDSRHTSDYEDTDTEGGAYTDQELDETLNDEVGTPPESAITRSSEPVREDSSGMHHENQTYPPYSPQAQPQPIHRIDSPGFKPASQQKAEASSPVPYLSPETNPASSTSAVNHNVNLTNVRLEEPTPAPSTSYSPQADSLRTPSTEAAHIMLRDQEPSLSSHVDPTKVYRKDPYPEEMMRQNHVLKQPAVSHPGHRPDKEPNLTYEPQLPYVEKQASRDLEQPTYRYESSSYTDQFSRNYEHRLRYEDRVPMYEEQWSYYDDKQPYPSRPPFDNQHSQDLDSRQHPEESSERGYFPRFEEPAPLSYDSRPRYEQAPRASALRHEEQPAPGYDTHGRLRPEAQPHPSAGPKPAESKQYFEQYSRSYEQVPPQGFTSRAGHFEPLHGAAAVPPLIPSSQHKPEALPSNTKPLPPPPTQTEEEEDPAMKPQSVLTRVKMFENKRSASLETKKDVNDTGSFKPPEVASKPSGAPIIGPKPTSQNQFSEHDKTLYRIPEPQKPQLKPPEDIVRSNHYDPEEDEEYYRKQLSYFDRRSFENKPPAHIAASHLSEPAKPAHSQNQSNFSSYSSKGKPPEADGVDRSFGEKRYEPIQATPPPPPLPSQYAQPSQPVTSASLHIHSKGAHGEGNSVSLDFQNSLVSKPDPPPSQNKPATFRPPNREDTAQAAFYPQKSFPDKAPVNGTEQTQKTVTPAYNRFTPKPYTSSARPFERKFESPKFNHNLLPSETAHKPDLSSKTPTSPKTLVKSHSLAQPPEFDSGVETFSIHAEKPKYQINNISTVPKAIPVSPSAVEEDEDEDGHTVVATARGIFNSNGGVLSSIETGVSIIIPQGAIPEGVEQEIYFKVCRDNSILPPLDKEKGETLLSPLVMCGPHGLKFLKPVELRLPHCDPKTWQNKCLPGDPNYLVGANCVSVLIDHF

Target: T1, PKC zeta (human (endogenous in T84)) (UniProt Q05513)
T1 sequence: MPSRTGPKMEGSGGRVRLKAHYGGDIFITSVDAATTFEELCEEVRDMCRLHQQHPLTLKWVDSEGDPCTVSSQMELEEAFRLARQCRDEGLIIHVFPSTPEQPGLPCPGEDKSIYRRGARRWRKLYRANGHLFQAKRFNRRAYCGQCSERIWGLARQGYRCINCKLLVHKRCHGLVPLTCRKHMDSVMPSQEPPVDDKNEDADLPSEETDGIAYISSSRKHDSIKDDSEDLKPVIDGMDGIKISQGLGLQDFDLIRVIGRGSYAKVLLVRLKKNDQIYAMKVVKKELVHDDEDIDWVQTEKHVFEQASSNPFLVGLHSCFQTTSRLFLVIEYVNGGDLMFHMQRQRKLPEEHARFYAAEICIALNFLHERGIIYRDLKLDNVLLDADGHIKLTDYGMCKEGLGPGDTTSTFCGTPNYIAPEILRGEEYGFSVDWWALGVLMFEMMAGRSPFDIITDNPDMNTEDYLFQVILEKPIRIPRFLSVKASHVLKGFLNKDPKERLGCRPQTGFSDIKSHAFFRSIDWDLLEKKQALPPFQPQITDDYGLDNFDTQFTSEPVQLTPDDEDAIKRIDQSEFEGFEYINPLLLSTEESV
Assay: co-IP; T84 100,000 x g membranes in 2% CHAPS, rabbit anti-PKC zeta antiserum (Sigma P0713) and Protein A-Sepharose at 4°C, washed with 2% CHAPS, eluted with the PKC zeta peptide antigen in 100 mM NaCl, 15 mM HEPES pH 7.5; western blot; control anti-serum in parallel

binding: binds
Molecule: claudin-1 (from UniProt O95832 1-211)

binding: binds
B1: occludin (protein, UniProt Q16625 1-522)
chain: MSSRPLESPPPYRPDEFKPNHYAPSNDIYGGEMHVRPMLSQPAYSFYPEDEILHFYKWTSPPGVIRILSMLIIVMCIAIFACVASTLAWDRGYGTSLLGGSVGYPYGGSGFGSYGSGYGYGYGYGYGYGGYTDPRAAKGFMLAMAAFCFIAALVIFVTSVIRSEMSRTRRYYLSVIIVSAILGIMVFIATIVYIMGVNPTAQSSGSLYGSQIYALCNQFYTPAATGLYVDQYLYHYCVVDPQEAIAIVLGFMIIVAFALIIFFAVKTRRKMDRYDKSNILWDKEHIYDEQPPNVEEWVKNVSAGTQDVPSPPSDYVERVDSPMAYSSNGKVNDKRFYPESSYKSTPVPEVVQELPLTSPVDDFRQPRYSSGGNFETPSKRAPAKGRAGRSKRTEQDHYETDYTTGGESCDELEEDWIREYPPITSDQQRQLYKRNFDTGLQEYKSLQSELDEINKELSRLDKELDDYREESEEYMAAADEYNRLKQVKGSADYKSKKNHCKQLKSKLSHIKKMVGDYDRQKT

The next lines start with the molecule.

Molecule: ZO-1 (from UniProt Q07157 1-1748)
binding: binds

B2: ZO-2 (protein, UniProt Q9UDY2 1-1190)
chain: MPVRGDRGFPPRRELSGWLRAPGMEELIWEQYTVTLQKDSKRGFGIAVSGGRDNPHFENGETSIVISDVLPGGPADGLLQENDRVVMVNGTPMEDVLHSFAVQQLRKSGKVAAIVVKRPRKVQVAALQASPPLDQDDRAFEVMDEFDGRSFRSGYSERSRLNSHGGRSRSWEDSPERGRPHERARSRERDLSRDRSRGRSLERGLDQDHARTRDRSRGRSLERGLDHDFGPSRDRDRDRSRGRSIDQDYERAYHRAYDPDYERAYSPEYRRGARHDARSRGPRSRSREHPHSRSPSPEPRGRPGPIGVLLMKSRANEEYGLRLGSQIFVKEMTRTGLATKDGNLHEGDIILKINGTVTENMSLTDARKLIEKSRGKLQLVVLRDSQQTLINIPSLNDSDSEIEDISEIESNRSFSPEERRHQYSDYDYHSSSEKLKERPSSREDTPSRLSRMGATPTPFKSTGDIAGTVVPETNKEPRYQEDPPAPQPKAAPRTFLRPSPEDEAIYGPNTKMVRFKKGDSVGLRLAGGNDVGIFVAGIQEGTSAEQEGLQEGDQILKVNTQDFRGLVREDAVLYLLEIPKGEMVTILAQSRADVYRDILACGRGDSFFIRSHFECEKETPQSLAFTRGEVFRVVDTLYDGKLGNWLAVRIGNELEKGLIPNKSRAEQMASVQNAQRDNAGDRADFWRMRGQRSGVKKNLRKSREDLTAVVSVSTKFPAYERVLLREAGFKRPVVLFGPIADIAMEKLANELPDWFQTAKTEPKDAGSEKSTGVVRLNTVRQIIEQDKHALLDVTPKAVDLLNYTQWFPIVIFFNPDSRQGVKTMRQRLNPTSNKSSRKLFDQANKLKKTCAHLFTATINLNSANDSWFGSLKDTIQHQQGEAVWVSEGKMEGMDDDPEDRMSYLTAMGADYLSCDSRLISDFEDTDGEGGAYTDNELDEPAEEPLVSSITRSSEPVQHEESIRKPSPEPRAQMRRAASSDQLRDNSPPPAFKPEPPKAKTQNKEESYDFSKSYEYKSNPSAVAGNETPGASTKGYPPPVAAKPTFGRSILKPSTPIPPQEGEEVGESSEEQDNAPKSVLGKVKIFEKMDHKARLQRMQELQEAQNARIEIAQKHPDIYAVPIKTHKPDPGTPQHTSSRPPEPQKAPSRPYQDTRGSYGSDAEEEEYRQQLSEHSKRGYYGQSARYRDTEL
binding: binds
